PubChem BioAssay AID686938, Drosophila RNAi Screening Center – 2013

Test: 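Looking for CRAC channel components and the factors controlling them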 (primary screen)
System: Drosophila S2R+ cells
Knock-down reagent: long dsRNA against Drosophila genes, about 0.25 µg dsRNA per well, roughly 10,000 cells
Duration: 5 days of knock-down before the calcium assay
Challenge: thapsigargin (SERCA pump blocker) to empty calcium stores; entry signal taken 4 min after adding it
Read-out: 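Duplicate raw fluo-4 intensities per well from a plate reader, at rest and four minutes after thapsigargin emptied calcium stores; entry-to-rest ratio filled for only some wells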
Reading the numbers: calcium entry signal: higher = stronger calcium signal after store depletion; resting calcium signal: higher = higher resting calcium signal
Units: calcium entry signal in fluorescence units; resting calcium signal in fluorescence units
Active means: 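Hit if the duplicate-averaged plate z-score for entry over resting signal is under −3; wells with weak total dye signal (Fmax z < −2) or more than 5 off-targets removed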
Calls: active = strongly reduced calcium entry; inactive = no strong reduction
The screen tested about 23,000 reagents; this is an unselected part of those with a known target gene and a result. In the full data, 75 (0.33%) are marked active. 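Raw plate signals without normalisation; calls rest on plate z-scores that were not deposited; ratio present for only 364 wells.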 A number with no mark means an inactive call. Not stated in the record: the dose of the treatment.

For CG11444 [DRSC17784], what was measured?
calcium entry signal, replicate 1: 4.17e7; calcium entry signal, replicate 2: 4.10e7; resting calcium signal, replicate 1: 1.80e7; resting calcium signal, replicate 2: 2.01e7

With CG4866 [DRSC06899], how do the results read?
calcium entry signal, replicate 1: 3.74e7; calcium entry signal, replicate 2: 3.08e7; resting calcium signal, replicate 1: 1.65e7; resting calcium signal, replicate 2: 1.71e7

What did the screen give for Ehbp1 [DRSC06561]?
calcium entry signal, replicate 1: 4.56e7; calcium entry signal, replicate 2: 4.08e7; resting calcium signal, replicate 1: 2.10e7; resting calcium signal, replicate 2: 1.86e7

With Icmt [DRSC09834], how do the results read?
calcium entry signal, replicate 1: 3.01e7; calcium entry signal, replicate 2: 4.63e7; resting calcium signal, replicate 1: 1.56e7; resting calcium signal, replicate 2: 2.09e7

Which result is listed for Cip4 [DRSC08091]?
calcium entry signal, replicate 1: 4.47e7; calcium entry signal, replicate 2: 3.52e7; resting calcium signal, replicate 1: 2.07e7; resting calcium signal, replicate 2: 1.57e7

With Cip4 [DRSC08469], what does the deposit list?
calcium entry signal, replicate 1: 4.43e7; calcium entry signal, replicate 2: 3.40e7; resting calcium signal, replicate 1: 3.12e7; resting calcium signal, replicate 2: 1.49e7

With Cip4 [DRSC21740], what does the deposit list?
calcium entry signal, replicate 1: 2.41e7; calcium entry signal, replicate 2: 3.88e7; resting calcium signal, replicate 1: 1.26e7; resting calcium signal, replicate 2: 1.70e7

What is on record for CG13708 [DRSC08317]?
calcium entry signal, replicate 1: 2.86e7; calcium entry signal, replicate 2: 4.49e7; resting calcium signal, replicate 1: 1.44e7; resting calcium signal, replicate 2: 1.93e7

For Kah [DRSC07887], how do the results read?
calcium entry signal, replicate 1: 3.87e7; calcium entry signal, replicate 2: 4.58e7; resting calcium signal, replicate 1: 2.00e7; resting calcium signal, replicate 2: 2.11e7

For Kah [DRSC08515], what does the deposit list?
calcium entry signal, replicate 1: 4.10e7; calcium entry signal, replicate 2: 4.04e7; resting calcium signal, replicate 1: 2.16e7; resting calcium signal, replicate 2: 1.91e7

How did the screen score BomT3 [DRSC13537]?
calcium entry signal, replicate 1: 4.15e7; calcium entry signal, replicate 2: 2.63e7; resting calcium signal, replicate 1: 2.09e7; resting calcium signal, replicate 2: 1.34e7

With BomT3 [DRSC15871], what was measured?
calcium entry signal, replicate 1: 4.28e7; calcium entry signal, replicate 2: 5.56e7; resting calcium signal, replicate 1: 5.18e7; resting calcium signal, replicate 2: 2.41e7

2 entries from above, sorted by “resting calcium signal, replicate 2”, lowest first:
BomT3 [DRSC13537] → calcium entry signal, replicate 1: 4.15e7; calcium entry signal, replicate 2: 2.63e7; resting calcium signal, replicate 1: 2.09e7; resting calcium signal, replicate 2: 1.34e7
BomT3 [DRSC15871] → calcium entry signal, replicate 1: 4.28e7; calcium entry signal, replicate 2: 5.56e7; resting calcium signal, replicate 1: 5.18e7; resting calcium signal, replicate 2: 2.41e7
